No constants are given. Whether binding was seen depends on the method and setting. In cells and extracts the contact can be indirect. Some results given as binding are weak or reduced against the parent protein; the word gives no strength.
Legend:
[1] = target: T1, Myristoylated Alanine-Rich C Kinase Substrate (MARCKS) (mouse (endogenous in embryos and C17.2 cells)) (UniProt P26645); assay: co-IP; IP with rabbit anti-MARCKS antibody and Protein A/G magnetic beads from C17.2 cell lysate, normal or high glucose; immunoblot
T1 sequence: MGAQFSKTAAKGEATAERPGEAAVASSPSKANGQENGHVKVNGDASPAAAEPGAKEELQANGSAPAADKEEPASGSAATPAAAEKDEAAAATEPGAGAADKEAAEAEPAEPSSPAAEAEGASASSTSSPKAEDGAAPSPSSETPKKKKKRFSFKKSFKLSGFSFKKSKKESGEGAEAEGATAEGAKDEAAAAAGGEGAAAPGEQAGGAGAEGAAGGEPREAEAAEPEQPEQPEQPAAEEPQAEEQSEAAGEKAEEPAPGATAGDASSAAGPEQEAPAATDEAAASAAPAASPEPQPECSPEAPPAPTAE

By UniProt entry, the sequences of proteins in these tests, tags left out. Residues count along the entry.
UniProt Q9EQY0, residues 21-977: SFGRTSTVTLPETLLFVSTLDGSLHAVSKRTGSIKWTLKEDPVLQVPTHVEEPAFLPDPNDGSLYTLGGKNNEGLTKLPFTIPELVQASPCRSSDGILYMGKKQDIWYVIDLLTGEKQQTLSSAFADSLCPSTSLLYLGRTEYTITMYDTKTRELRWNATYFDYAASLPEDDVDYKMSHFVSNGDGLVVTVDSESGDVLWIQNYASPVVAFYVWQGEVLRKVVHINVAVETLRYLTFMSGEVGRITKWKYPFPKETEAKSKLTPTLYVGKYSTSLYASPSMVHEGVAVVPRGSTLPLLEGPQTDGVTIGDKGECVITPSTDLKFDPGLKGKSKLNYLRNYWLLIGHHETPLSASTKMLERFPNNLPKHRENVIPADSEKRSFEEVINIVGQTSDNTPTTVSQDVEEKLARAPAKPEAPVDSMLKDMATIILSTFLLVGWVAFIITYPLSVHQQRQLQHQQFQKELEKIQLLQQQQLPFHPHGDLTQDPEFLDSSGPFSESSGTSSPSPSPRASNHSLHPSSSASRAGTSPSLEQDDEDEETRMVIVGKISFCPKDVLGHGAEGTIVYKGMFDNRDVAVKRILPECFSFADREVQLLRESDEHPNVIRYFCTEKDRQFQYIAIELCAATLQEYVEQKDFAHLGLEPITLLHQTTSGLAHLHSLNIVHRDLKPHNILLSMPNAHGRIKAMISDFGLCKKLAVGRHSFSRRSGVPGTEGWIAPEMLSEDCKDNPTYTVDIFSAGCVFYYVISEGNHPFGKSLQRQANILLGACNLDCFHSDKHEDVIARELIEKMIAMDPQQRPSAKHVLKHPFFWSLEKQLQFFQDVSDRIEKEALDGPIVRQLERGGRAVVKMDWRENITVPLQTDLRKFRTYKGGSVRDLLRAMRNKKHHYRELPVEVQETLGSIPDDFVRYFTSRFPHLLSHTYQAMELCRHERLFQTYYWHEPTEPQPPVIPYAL
UniProt Q9DCC8: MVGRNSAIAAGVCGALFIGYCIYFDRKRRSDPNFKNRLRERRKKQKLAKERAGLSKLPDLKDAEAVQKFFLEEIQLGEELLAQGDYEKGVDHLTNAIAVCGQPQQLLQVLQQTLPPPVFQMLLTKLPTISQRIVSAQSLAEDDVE
UniProt Q8CHK4: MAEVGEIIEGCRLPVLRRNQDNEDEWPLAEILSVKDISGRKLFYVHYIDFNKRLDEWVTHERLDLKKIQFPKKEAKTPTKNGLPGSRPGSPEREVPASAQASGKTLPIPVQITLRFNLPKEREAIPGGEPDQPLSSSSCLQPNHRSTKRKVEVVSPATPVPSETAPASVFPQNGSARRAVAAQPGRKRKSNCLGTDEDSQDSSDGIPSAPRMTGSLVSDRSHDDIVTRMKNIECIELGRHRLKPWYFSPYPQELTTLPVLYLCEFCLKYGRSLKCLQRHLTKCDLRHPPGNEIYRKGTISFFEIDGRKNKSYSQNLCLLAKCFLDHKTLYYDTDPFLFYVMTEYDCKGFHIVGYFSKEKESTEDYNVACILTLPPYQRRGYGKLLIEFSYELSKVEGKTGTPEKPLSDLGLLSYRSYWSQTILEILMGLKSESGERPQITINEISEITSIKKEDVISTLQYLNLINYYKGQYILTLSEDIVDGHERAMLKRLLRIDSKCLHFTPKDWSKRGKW

[2] = target: T1, Myristoylated Alanine-Rich C Kinase Substrate (MARCKS) (mouse (endogenous in embryos and C17.2 cells)); assay: co-IP; IP with rabbit anti-MARCKS antibody and Protein A/G magnetic beads from lysate of five to six embryos pooled per litter, nondiabetic or diabetic dams; immunoblot
[3] = target: IRE1α (mouse (endogenous in embryos and C17.2 cells)) (UniProt Q9EQY0); assay: proximity ligation; sections of the embryonic neuroepithelium; embryos from nondiabetic or diabetic dams, wild type or MARCKS-PD transgenic; red PLA dots per cell
[4] = target: Tom20 (mouse (endogenous in embryos and C17.2 cells)) (UniProt Q9DCC8); assay: as above
[5] = target: IRE1α (mouse (endogenous in embryos and C17.2 cells)) (UniProt Q9EQY0); assay: proximity ligation; cultured C17.2 cells in normal glucose (5 mM) or high glucose (25 mM), with or without MARCKS-PD; red PLA dots per cell
[6] = target: Tom20 (mouse (endogenous in embryos and C17.2 cells)) (UniProt Q9DCC8); assay: as above

Measured: binding

Tat-interactive protein 60 (Tip60) (from UniProt Q8CHK4 1-513) (enzyme)
binds: [1] | [2]

B1: Myristoylated Alanine-Rich C Kinase Substrate (MARCKS) (protein, UniProt P26645 1-309)
chain: MGAQFSKTAAKGEATAERPGEAAVASSPSKANGQENGHVKVNGDASPAAAEPGAKEELQANGSAPAADKEEPASGSAATPAAAEKDEAAAATEPGAGAADKEAAEAEPAEPSSPAAEAEGASASSTSSPKAEDGAAPSPSSETPKKKKKRFSFKKSFKLSGFSFKKSKKESGEGAEAEGATAEGAKDEAAAAAGGEGAAAPGEQAGGAGAEGAAGGEPREAEAAEPEQPEQPEQPAAEEPQAEEQSEAAGEKAEEPAPGATAGDASSAAGPEQEAPAATDEAAASAAPAASPEPQPECSPEAPPAPTAE
binds: [3] | [4] | [5] | [6]
